# This is one part of the list. Rule as the data show it: active = 2-fold of DMSO or more and inactive = the rest. Single values of this set are uncertain. Some low values are a fixed figure set by the source, not a measured ratio.
# Test system: CM7/1-hgem mouse ES cell-derived cardiomyocytes
# Assay: maximal number of mAG-hGem(1/110)-positive cardiomyocytes over 96 h, fold-change vs DMSO; higher = more cardiomyocyte cell cycle activity
# Conditions: 1 µM; 96 (max over 12 h time points) h
row,Structure (SMILES),maximal number
1,COc1ccc2c(c1)[nH]c1c(C)nccc12,inactive: 1
2,COc1cc([C@@H]2c3cc4c(c(O)c3C[C@H]3COC(=O)[C@@H]32)OCO4)cc(OC)c1OC [beta-PELTATIN],inactive: 1
3,NP(N)(=O)NC(=O)c1ccc(F)cc1,inactive: 1
4,COc1cc2c(cc1O)CCN[C@@H]2C,inactive: 0.5
5,C=C(C)[C@H]1Cc2c(ccc3c2O[C@@H]2COc4cc(OC)c(OC)cc4[C@@H]2C3=O)O1,inactive: 1
6,CC(=O)OCC1=C(C(=O)O)N2C(=O)[C@@H](NC(=O)CCC[C@@H](N)C(=O)O)[C@H]2SC1,inactive: 1
7,O=C1C=C2C=C[C@@H]3C[C@@]2(O1)[C@H]1CCCCN31,inactive: 1
8,C=C[C@H]1CN2CC[C@H]1C[C@@H]2[C@@H](O)c1ccnc2ccccc12,inactive: 1
9,N#C/C(=C\c1ccc(O)cc1)C(=O)O [alpha-CYANO-4-HYDROXYCINNAMIC ACID],inactive: 1
10,N#C/C(=C\c1cccc(O)c1)C(=O)O [alpha-CYANO-3-HYDROXYCINNAMIC ACID],inactive: 1
11,COc1ccc2c(c1O)-c1c(OC)c(OC)cc3c1[C@H](C2)N(C)CC3,inactive: 1
12,CCC1(C2=NCCN2)Cc2ccccc2O1 (configuration not stated),active: 4
13,CC(C)(O)C(Cl)(Cl)Cl,inactive: 1
14,CC(=O)OC1CN2CCC1CC2 (configuration not stated),inactive: 1
15,C[C@@H](N)[C@@H](O)c1ccccc1,inactive: 1
16,C[C@@H]1CC[C@]2(NC1)O[C@H]1C[C@H]3[C@@H]4CC=C5C[C@@H](O)CC[C@]5(C)[C@H]4CC[C@]3(C)[C@H]1[C@@H]2C,inactive: 0.5

# 2 of the compounds above, as tab-separated lines.
row	Structure (SMILES)	maximal number
3	NP(N)(=O)NC(=O)c1ccc(F)cc1	inactive: 1
6	CC(=O)OCC1=C(C(=O)O)N2C(=O)[C@@H](NC(=O)CCC[C@@H](N)C(=O)O)[C@H]2SC1	inactive: 1

# More entries follow.

row,Structure (SMILES),maximal number
1,OC[C@@H]1CCCN2CCCC[C@H]12,inactive: 1
2,COc1cc2c(cc1O)C[C@H]1c3c(cc(O)c(OC)c3-2)CCN1C,inactive: 1
3,C[C@]12CCC(=O)C=C1C=C[C@@H]1[C@@H]2CC[C@@]2(C)[C@H]1CC[C@@]2(O)CCC(=O)O,inactive: 1
4,COC[C@]12CN(C=O)[C@@H]3[C@@H]4[C@H](OC)[C@H]1[C@@]3([C@@H](OC)C[C@H]2O)[C@@H]1C[C@@]2(O)[C@H](OC(=O)c3ccccc3)[C@@H]1[C@]4(OC(C)=O)[C@@H](O)[C@@H]2OC,inactive: 1
5,CC[C@@H](C)C(=O)O[C@H]1[C@H](O)[C@H]2[C@@H](CN3C[C@@H](C)CC[C@H]3[C@@]2(C)O)[C@@H]2C[C@]34O[C@]5(O)[C@@H](OC(=O)[C@@](C)(O)CC)CC[C@@]3(C)[C@@H]5[C@@H](OC(C)=O)[C@@H](OC(C)=O)[C@H]4[C@@]21O,inactive: 1
6,O=c1cccc2n1C[C@@H]1CNC[C@H]2C1,inactive: 1
7,CN1CCN(C(=O)OC2c3nccnc3C(=O)N2c2ccc(Cl)cn2)CC1 (configuration not stated),inactive: 0.5
8,Oc1ccc2c3c1O[C@H]1[C@@H](O)CC[C@@]4(O)[C@@H](C2)N(CC2CCC2)CC[C@]314,inactive: 1
9,CC1(C)C(C=C(Cl)Cl)C1C(=O)OC(C#N)c1cccc(Oc2ccccc2)c1 (configuration not stated),inactive: 1
10,COc1cc2c(cc1-c1cc3cc4ccoc4cc3oc1=O)OCO2,inactive: 1
11,COc1cc2c(cc1OC)[C@@H]1C(=O)c3ccc(OC)c(CC=C(C)C)c3O[C@@H]1CO2,inactive: 1
12,O=c1[nH]c(=O)n(Cl)c(=O)n1Cl,inactive: 1
13,[N-]=[N+]=CC(=O)OC[C@H](N)C(=O)O,inactive: 1
14,CC(C)(O)[C@@H]1[C@H]2OC(=O)[C@@H]1[C@]1(O)C[C@H]3O[C@]34C(=O)O[C@H]2[C@]14C,inactive: 1
15,CC(=O)O[C@H]1CC[C@@]2(C)C(=CC[C@@H]3[C@@H]2CC[C@]2(C)C(=O)CC[C@@H]32)C1,inactive: 1
16,CN(N)C=O,inactive: 1
